Assay results from paper doi:10.1101/218206.
Results are given in words; binding and its absence hold for the method and conditions named. Some results given as binding are weak or reduced against the parent protein; the word gives no strength.

Target: T1, C11ORF70 (human) (UniProt Q9BRQ4)
T1 sequence: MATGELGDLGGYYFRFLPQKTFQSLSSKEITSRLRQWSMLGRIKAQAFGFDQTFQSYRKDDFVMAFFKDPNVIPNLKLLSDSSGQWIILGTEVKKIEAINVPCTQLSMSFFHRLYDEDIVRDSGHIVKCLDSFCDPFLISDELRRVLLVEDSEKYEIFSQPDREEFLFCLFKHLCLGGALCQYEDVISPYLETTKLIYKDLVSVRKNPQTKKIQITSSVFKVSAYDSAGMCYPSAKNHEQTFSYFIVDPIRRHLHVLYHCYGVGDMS
Assay: two-hybrid

B1: DNAAF2 (protein, UniProt Q9NVR5 1-837)
chain: MAKAAASSSLEDLDLSGEEVQRLTSAFQDPEFRRMFSQYAEELTDPENRRRYEAEITALERERGVEVRFVHPEPGHVLRTSLDGARRCFVNVCSNALVGAPSSRPGSGGDRGAAPGSHWSLPYSLAPGREYAGRSSSRYMVYDVVFHPDALALARRHEGFRQMLDATALEAVEKQFGVKLDRRNAKTLKAKYKGTPEAAVLRTPLPGVIPARPDGEPKGPLPDFPYPYQYPAAPGPRAPSPPEAALQPAPTEPRYSVVQRHHVDLQDYRCSRDSAPSPVPHELVITIELPLLRSAEQAALEVTRKLLCLDSRKPDYRLRLSLPYPVDDGRGKAQFNKARRQLVVTLPVVLPAARREPAVAVAAAAPEESADRSGTDGQACASAREGEAGPARSRAEDGGHDTCVAGAAGSGVTTLGDPEVAPPPAAAGEERVPKPGEQDLSRHAGSPPGSVEEPSPGGENSPGGGGSPCLSSRSLAWGSSAGRESARGDSSVETREESEGTGGQRSACAMGGPGTKSGEPLCPPLLCNQDKETLTLLIQVPRIQPQSLQGDLNPLWYKLRFSAQDLVYSFFLQFAPENKLSTTEPVISISSNNAVIELAKSPESHGHWREWYYGVNNDSLEERLFVNEENVNEFLEEVLSSPFKQSMSLTPPLIEVLQVTDNKIQINAKLQECSNSDQLQGKEERVNEESHLTEKEYIEHCNTPTTDSDSSIAVKALQIDSFGLVTCFQQESLDVSQMILGKSQQPESKMQSEFIKEKSATCSNEEKDNLNESVITEEKETDGDHLSSLLNKTTVHNIPGFDSIKETNMQDGSVQVIKDHVTNCAFSFQNSLLYDLD
B1 was tested. Which binding did it give?
The binding was “binds”.
